The nature of this data set: general procedure: Fmoc solid-phase peptide synthesis; Wang resin loaded with Fmoc-L-Cys(Trt)-OH; PyBOP, DIPEA. Particulars: conjugation step.

The results in this text go back to patent publication US20140140925A1 (priority 2009, published 2014).

For the substance Pte-Glu-Asp-Arg-Asp-Asp-Cys-OH, the conjugation yield turned out to be 70%.
